According to patent publication US9770482B2, “Targeting the EGFR-SGLT1 interaction for cancer therapy” (The University of Houston System, priority 2013, dated 2017):
These are yes or no findings as the source states them, for the method shown. Binding seen in cells or lysates may run through a third protein. Binding can be weak; no strength is given. Sequences can lack the tags named with a protein.

Target: T1, flag tagged human SGLT1 (sodium/glucose co-transporter 1) (human) (UniProt P13866)
T1 sequence (looked up): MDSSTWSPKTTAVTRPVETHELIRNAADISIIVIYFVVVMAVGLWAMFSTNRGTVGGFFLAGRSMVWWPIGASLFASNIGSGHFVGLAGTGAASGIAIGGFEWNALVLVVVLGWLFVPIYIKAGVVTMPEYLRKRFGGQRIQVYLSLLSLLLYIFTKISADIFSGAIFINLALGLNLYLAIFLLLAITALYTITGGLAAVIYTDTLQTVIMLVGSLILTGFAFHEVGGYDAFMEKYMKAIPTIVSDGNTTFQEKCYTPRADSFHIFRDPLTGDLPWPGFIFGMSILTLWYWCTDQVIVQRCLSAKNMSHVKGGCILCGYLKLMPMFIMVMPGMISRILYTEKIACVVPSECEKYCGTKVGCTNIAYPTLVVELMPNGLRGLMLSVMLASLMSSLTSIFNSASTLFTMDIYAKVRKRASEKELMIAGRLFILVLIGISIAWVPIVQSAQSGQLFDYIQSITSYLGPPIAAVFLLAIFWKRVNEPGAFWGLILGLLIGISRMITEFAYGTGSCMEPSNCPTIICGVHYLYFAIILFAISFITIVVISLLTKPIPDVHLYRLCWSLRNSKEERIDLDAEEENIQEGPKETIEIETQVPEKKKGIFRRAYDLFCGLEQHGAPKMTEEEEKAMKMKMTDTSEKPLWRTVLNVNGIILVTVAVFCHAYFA
Assay: co-IP of flag tagged SGLT1, Western blot for HA tagged truncated EGFRs that include the TM domain

Question: Which binding does the source give for “EGFR with extracellular domain deletion (1-644aa), HA tagged (receptor)” here?
Answer: binds
